Experimental data: PMC7187754 (Frontiers in Microbiology, 2020)

What was measured:
[1] = general procedure: Fmoc solid-phase peptide synthesis; 2-chlorotrityl chloride polystyrene resin (2-CTC, 1.60 mmol/g), preloaded via D-Ser side chain; HBTU/DIPEA; DIC/DMAP/pyridine for esterification; HATU/HOAt/DIPEA for on-resin c; details: whole synthesis
[2] = system: test panel of six Gram-positive bacterial strains; experiment: Relative activity factor distribution count over the test panel; format: cell-based
[3] = general procedure: Fmoc solid-phase peptide synthesis; preloaded 2-CTC resin (0.46 mmol/g); HBTU/DIPEA; DIC/DMAP/pyridine for esterification; HATU/HOAt/DIPEA for on-resin c; details: whole synthesis, scale 0.069 mmol
[4] = 214 nm, scale of the general procedure 0.0555 mmol
[5] = based on initial resin loading, scale 0.0615 mmol
[6] = scale of the general procedure 0.0555 mmol
[7] = based on initial resin loading, scale 0.069 mmol

Substance | final HPLC purity [1, 4] [%] | isolated yield [1, 5] | isolated mass ([1]; scale 0.0615 mmol) [mg] | difficulty met [1, 6] | also measured
pseudodesmin C12 | 99.09 | 1 8% | 12.8 | [M+H]+, epimerization product | –
Viscosinamide | 96.23 | – | – | [M+H]+, epimerization product | isolated yield [1, 7]: 35%; crude mass ([1]; scale 0.069 mmol): 85.6 mg; isolated mass ([1]; scale 0.069 mmol): 27.4 mg
pseudodesmin A | – | – | – | – | final LC-MS purity ([1]; LC-MS (Kinetex C18, detection at 214 nm), scale of the general procedure 0.0555 mmol): 99.66%; isolated yield ([1]; overall, on initial resin loading, scale of the general procedure 0.0555 mmol): 27%; isolated mass ([1]; scale 0.0765 mmol): 23.5 mg
pseudodesmin C14 | 99.31 | 1 4% | 10.5 | [M+H]+, epimerization product | –
Pseudodesmin A [compound 1] | – | – | – | – | Relative activity factor distribution count 0.5≤F≤2 [2]: 3; Relative activity factor distribution count ×4 [2]: 1; Relative activity factor distribution count ×8 [2]: 2
pseudodesmin C6 | 91.31 | 13% | 8.8 | [M+H]+, epimerization product | –
viscosinamide L5I | – | – | – | [M+H]+, epimerization product | crude mass [3]: 82.6 mg; final purity (method not given) [1, 4]: 75.2%; isolated yield [1, 7]: 12%; isolated mass ([1]; scale 0.069 mmol): 9.0 mg
pseudodesmin C8 | 92.62 | 1 0% | 6.7 | [M+H]+, epimerization product | –
Daptomycin | – | – | – | – | Relative activity factor distribution count ×4 [2]: 1; Relative activity factor distribution count ≥16 [2]: 4
pseudodesmin C4 | 90.99 | 8% | 5.2 | [M+H]+, epimerization product | –
